Assay results published in paper PMC9465852, “Comparative analyses of vertebrate CPEB proteins define two subfamilies with coordinated yet distinct functions in post-transcriptional gene regulation”.

Columns and labels:
[1] = molecular target: CPEB1(6A)-BirA fusion (Xenopus laevis); test: condition: only oocytes treated with 10 uM progesterone; proximity labelling; BioID with CPEB1(6A)-BirA in X. laevis oocytes stimulated with 10 uM progesterone (MII)
[2] = molecular target: CPEB1(6A)-BirA fusion (Xenopus laevis); test: proximity labelling; BioID with CPEB1(6A)-BirA in X. laevis oocytes, PI; for the preys that remained also after 10 uM progesterone (MII)

Binder	binding [1]	binding [2]
PATL2 (protein, UniProt Q4V7K4 1-733) MNLGSEQILPEDFYLAEEGALLEEMAEEDEEIDLYNEVTFGLDQESDEEPVKLEDDHTKPIQMPEAPKEEEPEALQPVKEAKGSEKAPLHEVKIVVEPHEDHVDLSIDSGGHTMNSTMDDSELGDPAVMKAFHGKPTLESLDSAVVDSGIGSTWSELDTDYDQSGMDSGLWEASPKVSTYATGQILEDKAILRIMERAPYLPPTNLEFLGSPLQRGFMPSQRLQGPEMGAMSPKPYRPRFMRQQSPLVPRSMRPSYPFTPPRRGPSVFAPNQSPGFVSQTPFRPMSPNVSTPTRPMTPKMVRMHFGPMSPSPSFSPFFSPMGNALQRFKVPGHVTQLHPQHRRILSQRQRPQSSSRRQWESRPDPYASLMSQKEKEWVIKLQMIQLQSENPHLDDYYYQAYYENLERKLSEEEFLGERKKREPTKLVTPYIQKAETYESVVHIEGSLGQVAVSTCYSPRRAIDAVSYAMPDEAIKALGYQRLRVLKHAEKVFLMFLEVEELARKMSHIPEEEHVHFQHKQNYKVQRIYDVLKIAPCHNEEESEFLQLLQVGKGKKLVARLLPFLRSEQAREILLLVVQHLTFLIKNDSAEESLSVLYGPLKTIINGLSFTELIGVTQELTRPLPESNDLPLTLAFQNQFGISLLYCLLSHGERLLSSDLPMEPCIGDFEKWTDTVFLVAKELSHVSKSSMVEPLFLPSNLLSLFCRYLDKQTIHKLEDKMECPVIPPYTAVPS	no binding	binds
Symplekin (SYMPK) (protein, UniProt Q7ZYV9 1-1202) MAVSMASQFFSQEEGTSEVVSTSERVVELLNMAALATNDTKITMLKQVQELIINKDPTLLDNFLDEIIAFQADKSVEVRKIVVNFIEEACKLDNELLIKLIANLHMLLKDENVNVVKKSILTMTQLYKVALQWVARSRPPSEQQESCWDLVTEMAADILLLLESDNDGMRTHAVKFVESLIVTLSPRTADSEVPKRQDGDISLEQIPPDHQFLKYNTLRDLGKQAVKELLKFMAHPAISSINLTAALGSLASIARQRPMFMAEVIQAYETLHANLPPTLAKSQVSSVRKNLKLQLLSVLRHPSSYEYQGPISTLLLDLGTSQGEITRHLPPPRDSNRKRAREDGEGGQKKSRTDIPLPDDDDDKDTMQLPTIPAPAPSTQSATDITADFVRPLLSPENVANLVLISMVYLPDSMPASFQSTYTPVESAGTDSQIRHLARLMATQMSAAGIGPGVEQSKDIPVDVVEEENIKPEGLVIKRRISALTKGQAISVLGCQSEKTKEEEEEEDDAPLAKKRPEPILPATQIRPSGVGGRKKVFRLKEVTEPLTDVQIKSLKLGAVRRILQAERSVGSSGASQMRVKVLARLVTQLDISVKAEVLSHFLNDPRMRLDLALAWLYQEYCEYQSGAGEEGYQECLIGILTGLQERPDQRDGVFTKVVLEAPLLTDSALDVLRKYCEDEGRSYLGMSTLRDLILTRPARQFQYLHLLLDLSSHEKDKIRQQSLHFIKRMYEKESLRPYIEKFALNYLQLLVHPNPPSVLFGADKDTEVAAPWTEDTVKQCLYLYLALLPQNHKLIHELASVYTEATADIKRTVLRVIETPIRGMGMNSPELLLLVENCPKGAETLVTRCLHILTDKVPPSPELVKRVRELYHKRLPDVRFLIPVLNGLDKKEVIQALPKLIKLNPIVVKEVFNRLLGTQHGEVSSSLSPLTPGDLLVALHNIDSSKCDMKSVIKATNLCFSARSVYTSEVLAVVLQQLMDTTPLPMLLMRTVIQALGMYPRLGGFIMNILTRLIYKQVWKYPKVWEGFIKCCQRTKPQSFSVLLQLPPPQLLSVLQTSPDLRDPLLAHVRAFTPHQLAHVPHSIMAILEAESRTDAGAEEAAQVEEEQETPAQDIIARRLAQEKSLKKQIEEQKGRNNQEMEEVAEVDPPAIFIAEEEEEESLKSQGKEEPQEDSSSNATTAEKSPVADEPMEEEPVEKKD		binds

No constants are given. Whether binding was seen depends on the method and setting. In cells and extracts the contact can be indirect. A yes stands for co-enrichment or nearness to the bait. Other partners may have been found. For part of these data: No binding means not detected with the bait.
